{
  "source": "the supplement of paper PMC8728848",
  "experiment_in_all_cases": "glycan array binding signal (z-score within array); higher = stronger binding",
  "conditions_in_all_cases": "glycan notation: IUPAC condensed, linker removed",
  "key": {"[1]": {"biological_target": "Neu5Ac(a2-3)GalNAc", "in_short": "(§1)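 Columns mapping to the same glycan were averaged after glycan names were converted to IUPAC-condensed notation. The data come from 3228 arrays in the Consortium for Functional Glycomics database, limited to those with an available protein sequence. Binding is reported as a within-array Z-score averaged across arrays of one protein sequence and across linkers.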"}, "[2]": {"biological_target": "Neu5Ac(a2-3)GalNAc(b1-4)GlcNAc", "in_short": "as §1"}, "[3]": {"biological_target": "Neu5Ac(a2-3)[GalNAc(b1-4)]Gal(b1-4)Glc", "in_short": "as §1"}, "[4]": {"biological_target": "Neu5Ac(a2-3)[GalNAc(b1-4)]Gal(b1-4)GlcNAc", "in_short": "as §1"}, "[5]": {"biological_target": "Neu5Ac(a2-3)[GalNAc(b1-4)]Gal(b1-4)GlcNAc(b1-3)GalNAc", "in_short": "as §1"}, "[6]": {"biological_target": "Neu5Ac(a2-3)[Neu5Ac(a2-6)]GalNAc", "in_short": "as §1"}, "[7]": {"biological_target": "Neu5Ac(a2-6)Gal", "in_short": "as §1"}, "[8]": {"biological_target": "Neu5Ac(a2-6)Gal(b1-3)GlcNAc(b1-3)[Gal(b1-4)GlcNAc(b1-6)]Gal(b1-4)Glc", "in_short": "as §1"}, "[9]": {"biological_target": "Neu5Ac(a2-6)Gal(b1-4)Glc", "in_short": "as §1"}, "[10]": {"biological_target": "Neu5Ac(a2-6)Gal(b1-4)GlcNAc", "in_short": "as §1"}, "[11]": {"biological_target": "Neu5Ac(a2-6)Gal(b1-4)GlcNAc(b1-2)Man", "in_short": "as §1"}, "[12]": {"biological_target": "Neu5Ac(a2-6)Gal(b1-4)GlcNAc(b1-2)Man(a1-3)Man(b1-4)GlcNAc(b1-4)GlcNAc", "in_short": "as §1"}, "[13]": {"biological_target": "Neu5Ac(a2-6)Gal(b1-4)GlcNAc(b1-2)Man(a1-3)[Gal(b1-4)GlcNAc(b1-2)Man(a1-6)]Man(b1-4)GlcNAc(b1-4)GlcNAc", "in_short": "as §1"}, "[14]": {"biological_target": "Neu5Ac(a2-6)Gal(b1-4)GlcNAc(b1-2)Man(a1-3)[GlcNAc(b1-2)Man(a1-6)]Man(b1-4)GlcNAc(b1-4)GlcNAc", "in_short": "as §1"}, "[15]": {"biological_target": "Neu5Ac(a2-6)Gal(b1-4)GlcNAc(b1-2)Man(a1-3)[GlcNAc(b1-4)][Neu5Ac(a2-6)Gal(b1-4)GlcNAc(b1-2)Man(a1-6)]Man(b1-4)GlcNAc(b1-4)GlcNAc", "in_short": "as §1"}, "[16]": {"biological_target": "Neu5Ac(a2-6)Gal(b1-4)GlcNAc(b1-2)Man(a1-3)[Man(a1-6)]Man(b1-4)GlcNAc(b1-4)GlcNAc", "in_short": "as §1"}, "[17]": {"biological_target": "Neu5Ac(a2-6)Gal(b1-4)GlcNAc(b1-2)Man(a1-3)[Neu5Ac(a2-3)Gal(b1-4)GlcNAc(b1-2)Man(a1-6)]Man(b1-4)GlcNAc(b1-4)GlcNAc", "in_short": "as §1"}, "[18]": {"biological_target": "Neu5Ac(a2-6)Gal(b1-4)GlcNAc(b1-2)Man(a1-3)[Neu5Ac(a2-6)Gal(b1-4)GlcNAc(b1-2)Man(a1-6)]Man(b1-4)GlcNAc(b1-4)GlcNAc", "in_short": "as §1"}, "[19]": {"biological_target": "Neu5Ac(a2-6)Gal(b1-4)GlcNAc(b1-2)Man(a1-3)[Neu5Ac(a2-6)Gal(b1-4)GlcNAc(b1-2)Man(a1-6)]Man(b1-4)GlcNAc(b1-4)[Fuc(a1-6)]GlcNAc", "in_short": "as §1"}, "[20]": {"biological_target": "Neu5Ac(a2-6)Gal(b1-4)GlcNAc(b1-2)Man(a1-6)Man(b1-4)GlcNAc(b1-4)GlcNAc", "in_short": "as §1"}, "[21]": {"biological_target": "Neu5Ac(a2-6)Gal(b1-4)GlcNAc(b1-2)Man(a1-6)[Gal(b1-4)GlcNAc(b1-2)Man(a1-3)]Man(b1-4)GlcNAc(b1-4)GlcNAc", "in_short": "as §1"}, "[22]": {"biological_target": "Neu5Ac(a2-6)Gal(b1-4)GlcNAc(b1-2)Man(a1-6)[GlcNAc(b1-2)Man(a1-3)]Man(b1-4)GlcNAc(b1-4)GlcNAc", "in_short": "as §1"}, "[23]": {"biological_target": "Neu5Ac(a2-6)Gal(b1-4)GlcNAc(b1-2)Man(a1-6)[Man(a1-3)]Man(b1-4)GlcNAc(b1-4)GlcNAc", "in_short": "as §1"}, "[24]": {"biological_target": "Neu5Ac(a2-6)Gal(b1-4)GlcNAc(b1-2)[Neu5Ac(a2-6)Gal(b1-4)GlcNAc(b1-4)]Man(a1-3)[GlcNAc(b1-4)][Neu5Ac(a2-6)Gal(b1-4)GlcNAc(b1-2)[Neu5Ac(a2-6)Gal(b1-4)GlcNAc(b1-6)]Man(a1-6)]Man(b1-4)GlcNAc(b1-4)GlcNAc", "in_short": "as §1"}, "[25]": {"biological_target": "Neu5Ac(a2-6)Gal(b1-4)GlcNAc(b1-2)[Neu5Ac(a2-6)Gal(b1-4)GlcNAc(b1-4)]Man(a1-3)[GlcNAc(b1-4)][Neu5Ac(a2-6)Gal(b1-4)GlcNAc(b1-4)Man(a1-6)]Man(b1-4)GlcNAc(b1-4)GlcNAc", "in_short": "as §1"}, "[26]": {"biological_target": "Neu5Ac(a2-6)Gal(b1-4)GlcNAc(b1-2)[Neu5Ac(a2-6)Gal(b1-4)GlcNAc(b1-6)]Man(a1-6)[Neu5Ac(a2-6)Gal(b1-4)GlcNAc(b1-2)Man(a1-3)][GlcNAc(b1-4)]Man(b1-4)GlcNAc(b1-4)GlcNAc", "in_short": "as §1"}, "[27]": {"biological_target": "Neu5Ac(a2-6)Gal(b1-4)GlcNAc(b1-3)Gal(b1-3)GlcNAc", "in_short": "as §1"}, "[28]": {"biological_target": "Neu5Ac(a2-6)Gal(b1-4)GlcNAc(b1-3)Gal(b1-4)GlcNAc", "in_short": "as §1"}, "[29]": {"biological_target": "Neu5Ac(a2-6)Gal(b1-4)GlcNAc(b1-3)Gal(b1-4)GlcNAc(b1-2)Man(a1-3)[Neu5Ac(a2-6)Gal(b1-4)GlcNAc(b1-3)Gal(b1-4)GlcNAc(b1-2)Man(a1-6)]GalNAc", "in_short": "as §1"}, "[30]": {"biological_target": "Neu5Ac(a2-6)Gal(b1-4)GlcNAc(b1-3)Gal(b1-4)GlcNAc(b1-3)Gal(b1-4)GlcNAc", "in_short": "as §1"}, "[31]": {"biological_target": "Neu5Ac(a2-6)Gal(b1-4)GlcNAc(b1-3)Gal(b1-4)GlcNAc(b1-3)Gal(b1-4)GlcNAc(b1-2)Man(a1-3)[Neu5Ac(a2-6)Gal(b1-4)GlcNAc(b1-3)Gal(b1-4)GlcNAc(b1-3)Gal(b1-4)GlcNAc(b1-2)Man(a1-6)]GalNAc", "in_short": "as §1"}, "[32]": {"biological_target": "Neu5Ac(a2-6)Gal(b1-4)GlcNAc(b1-3)Gal(b1-4)GlcNAc(b1-3)GalNAc", "in_short": "as §1"}, "[33]": {"biological_target": "Neu5Ac(a2-6)Gal(b1-4)GlcNAc(b1-3)Gal(b1-4)GlcNAc(b1-3)[Neu5Ac(a2-6)Gal(b1-4)GlcNAc(b1-3)Gal(b1-4)GlcNAc(b1-6)]GalNAc", "in_short": "as §1"}, "[34]": {"biological_target": "Neu5Ac(a2-6)Gal(b1-4)GlcNAc(b1-3)Gal(b1-4)GlcNAc(b1-6)[Gal(b1-3)]GalNAc", "in_short": "as §1"}, "[35]": {"biological_target": "Neu5Ac(a2-6)Gal(b1-4)GlcNAc(b1-3)Gal(b1-4)[Fuc(a1-3)]GlcNAc(b1-3)Gal(b1-4)[Fuc(a1-3)]GlcNAc", "in_short": "as §1"}, "[36]": {"biological_target": "Neu5Ac(a2-6)Gal(b1-4)GlcNAc(b1-3)GalNAc", "in_short": "as §1"}, "[37]": {"biological_target": "Neu5Ac(a2-6)Gal(b1-4)GlcNAc(b1-3)[Neu5Ac(a2-6)Gal(b1-4)GlcNAc(b1-6)]GalNAc", "in_short": "as §1"}},
  "note": "Some of the results follow.",
  "data": [
    {"binder": "Epa3to2 (Candida glabrata) (protein) MGSSHHHHHHSSGLVPRGSHMKRELSSQNPFGYPIGCSPQDVAIIPGLTMELYSYPIVSGTPPNCYDASYVDPEYPRTGYLKRKMVGKSTGVTGNLNYKYSVEKACMVKYGNLPAGYNYNEPLTVSNFTMILYGYFKAQTTGLHTFFVNADDLLYINFGAGNAFDCCKREDSKTKLGEYVAYDIWHVDSSKNKVSLFLEKDLYYPIRMFFNNRDNNSSLDLSFSVNGATDQISDFSGYLYSVPDQPDTCPAHIGYDTTCR", "values": [
      {"measurement": "glycan array binding signal (z-score)", "setting": "[1]", "value": -0.084},
      {"measurement": "glycan array binding signal (z-score)", "setting": "[2]", "value": -0.344},
      {"measurement": "glycan array binding signal (z-score)", "setting": "[3]", "value": -1.38},
      {"measurement": "glycan array binding signal (z-score)", "setting": "[4]", "value": -0.17},
      {"measurement": "glycan array binding signal (z-score)", "setting": "[5]", "value": 0.187},
      {"measurement": "glycan array binding signal (z-score)", "setting": "[6]", "value": -1.13},
      {"measurement": "glycan array binding signal (z-score)", "setting": "[7]", "value": 0.581},
      {"measurement": "glycan array binding signal (z-score)", "setting": "[8]", "value": -0.463},
      {"measurement": "glycan array binding signal (z-score)", "setting": "[9]", "value": -0.291},
      {"measurement": "glycan array binding signal (z-score)", "setting": "[10]", "value": -0.477},
      {"measurement": "glycan array binding signal (z-score)", "setting": "[11]", "value": -0.293},
      {"measurement": "glycan array binding signal (z-score)", "setting": "[12]", "value": 2.19},
      {"measurement": "glycan array binding signal (z-score)", "setting": "[13]", "value": 0.88},
      {"measurement": "glycan array binding signal (z-score)", "setting": "[14]", "value": -0.347},
      {"measurement": "glycan array binding signal (z-score)", "setting": "[15]", "value": -0.89},
      {"measurement": "glycan array binding signal (z-score)", "setting": "[16]", "value": 1.16},
      {"measurement": "glycan array binding signal (z-score)", "setting": "[17]", "value": 0.139},
      {"measurement": "glycan array binding signal (z-score)", "setting": "[18]", "value": -0.587},
      {"measurement": "glycan array binding signal (z-score)", "setting": "[19]", "value": 0.435},
      {"measurement": "glycan array binding signal (z-score)", "setting": "[20]", "value": 0.353},
      {"measurement": "glycan array binding signal (z-score)", "setting": "[21]", "value": -0.632},
      {"measurement": "glycan array binding signal (z-score)", "setting": "[22]", "value": 1.21},
      {"measurement": "glycan array binding signal (z-score)", "setting": "[23]", "value": -1.41},
      {"measurement": "glycan array binding signal (z-score)", "setting": "[24]", "value": -0.941},
      {"measurement": "glycan array binding signal (z-score)", "setting": "[25]", "value": 1.14},
      {"measurement": "glycan array binding signal (z-score)", "setting": "[26]", "value": -0.053},
      {"measurement": "glycan array binding signal (z-score)", "setting": "[27]", "value": 1.5},
      {"measurement": "glycan array binding signal (z-score)", "setting": "[28]", "value": 0.051},
      {"measurement": "glycan array binding signal (z-score)", "setting": "[29]", "value": -1.11},
      {"measurement": "glycan array binding signal (z-score)", "setting": "[30]", "value": -0.275},
      {"measurement": "glycan array binding signal (z-score)", "setting": "[31]", "value": 0.127},
      {"measurement": "glycan array binding signal (z-score)", "setting": "[32]", "value": 0.077},
      {"measurement": "glycan array binding signal (z-score)", "setting": "[33]", "value": 0.333},
      {"measurement": "glycan array binding signal (z-score)", "setting": "[34]", "value": -0.986},
      {"measurement": "glycan array binding signal (z-score)", "setting": "[35]", "value": 0.521},
      {"measurement": "glycan array binding signal (z-score)", "setting": "[36]", "value": 0.516},
      {"measurement": "glycan array binding signal (z-score)", "setting": "[37]", "value": 1.36}
    ]}
  ]
}
